# Reference: the supplement of paper PMC8728848
# The list shows a part of the results.
# B1: GS7807Q-bfa-507-19-507 (Bacteroides fragilis) (protein)
# chain: ASCNKFDDLNTNPDAATKVTAPMLATKLILNITQQGSAKNFVYHSMLSKQIAWSENASDEQYNLFGRTDFDGYTILTNCQKMVDAANEGDKDSYAALAKFMKAYKLFYKSLEVGDIPYSDALKGEEGVQKPKYDTQKEVMRQVLEDLEEAYTLFSSGSDFDGDPIFGGDTENWKKTVVAFELKVLTHLCKKDTDADLKVKERFARLVSSGSLMTSNADNFQLVYSNKAGQLYPFYYTQNKHSDYLMMSSVIIDNLKKFNDYRMFYYASPAKAQTDKGIKDSEWDAYLSIDPSDSYSNISVLYGKGEFCLANLRYTRVPEGEPLMRLSYAEQNFILAEGAVRGWISEDASTYYKKGIEASMNFIADNTPDKEEYTHGRTITQEYIQEYLAQPVIQLSGDKEKDLEMILLQRYLASFLQHPYDAYYDYRRTGYPVLPINPSTNLNTEKNKIPTRWMYPEAEFSYNPDNANEAVQRQYNGSDDVNKLMWILQ
# Tests used:
# Assay in all cases: glycan array binding signal (z-score within array); higher = stronger binding
# Details in all cases: glycan notation: IUPAC condensed, linker removed
# [1] = biological target: Fuc(a1-2)[Gal(a1-3)]Gal(b1-4)GlcNAc(b1-2)Man(a1-3)[Fuc(a1-2)[Gal(a1-3)]Gal(b1-4)GlcNAc(b1-2)Man(a1-6)]Man(b1-4)GlcNAc(b1-4)[Fuc(a1-6)]GlcNAc
# Summary of the method: (§1)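 Glycan array data came from 3228 arrays in the Consortium for Functional Glycomics database, and only arrays with an available protein sequence were kept. Glycan names were put into IUPAC-condensed notation, and columns mapping to the same glycan were averaged. The binding signal is a within-array Z-score, averaged across arrays of one protein sequence run at different concentrations or buffers and across linkers. A negative Z-score can be read as non-binding.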
# [2] = biological target: Fuc(a1-2)[Gal(a1-3)]Gal(b1-4)GlcNAc(b1-3)GalNAc
# Summary of the method: as §1
# [3] = biological target: Fuc(a1-2)[Gal(a1-3)]Gal(b1-4)GlcNAc(b1-3)[Fuc(a1-2)[Gal(a1-3)]Gal(b1-4)GlcNAc(b1-6)]GalNAc
# Summary of the method: as §1
# [4] = biological target: Fuc(a1-2)[Gal(a1-3)]Gal(b1-4)GlcNAc(b1-6)GalNAc
# Summary of the method: as §1
# [5] = biological target: Fuc(a1-2)[Gal(a1-3)]Gal(b1-4)[Fuc(a1-3)]Glc
# Summary of the method: as §1
# [6] = biological target: Fuc(a1-2)[Gal(a1-3)]Gal(b1-4)[Fuc(a1-3)]GlcNAc
# Summary of the method: as §1
# [7] = biological target: Fuc(a1-2)[Gal(a1-3)]Gal(b1-4)[Fuc(a1-3)]GlcNAc(b1-3)GalNAc
# Summary of the method: as §1
# [8] = biological target: Fuc(a1-2)[Gal(a1-4)]Gal(b1-4)GlcNAc
# Summary of the method: as §1
# [9] = biological target: Fuc(a1-2)[GalNAc(a1-3)]Gal
# Summary of the method: as §1
# [10] = biological target: Fuc(a1-2)[GalNAc(a1-3)]Gal(b1-3)GalNAc(a1-3)[Fuc(a1-2)]Gal(b1-4)GlcNAc
# Summary of the method: as §1
# [11] = biological target: Fuc(a1-2)[GalNAc(a1-3)]Gal(b1-3)GalNAc(b1-3)Gal(a1-4)Gal(b1-4)Glc
# Summary of the method: as §1
# [12] = biological target: Fuc(a1-2)[GalNAc(a1-3)]Gal(b1-3)GlcNAc
# Summary of the method: as §1
# [13] = biological target: Fuc(a1-2)[GalNAc(a1-3)]Gal(b1-3)GlcNAc(b1-2)Man(a1-3)[Fuc(a1-2)[GalNAc(a1-3)]Gal(b1-3)GlcNAc(b1-2)Man(a1-6)]Man(b1-4)GlcNAc(b1-4)GlcNAc
# Summary of the method: as §1
# [14] = biological target: Fuc(a1-2)[GalNAc(a1-3)]Gal(b1-3)GlcNAc(b1-2)Man(a1-3)[Fuc(a1-2)[GalNAc(a1-3)]Gal(b1-3)GlcNAc(b1-2)Man(a1-6)]Man(b1-4)GlcNAc(b1-4)[Fuc(a1-6)]GlcNAc
# Summary of the method: as §1
# [15] = biological target: Fuc(a1-2)[GalNAc(a1-3)]Gal(b1-3)GlcNAc(b1-3)GalNAc
# Summary of the method: as §1
# [16] = biological target: Fuc(a1-2)[GalNAc(a1-3)]Gal(b1-3)GlcNAc(b1-6)GalNAc
# Summary of the method: as §1
# [17] = biological target: Fuc(a1-2)[GalNAc(a1-3)]Gal(b1-4)Glc
# Summary of the method: as §1
# [18] = biological target: Fuc(a1-2)[GalNAc(a1-3)]Gal(b1-4)GlcNAc
# Summary of the method: as §1
# [19] = biological target: Fuc(a1-2)[GalNAc(a1-3)]Gal(b1-4)GlcNAc(b1-2)Man
# Summary of the method: as §1
# [20] = biological target: Fuc(a1-2)[GalNAc(a1-3)]Gal(b1-4)GlcNAc(b1-2)Man(a1-3)[Fuc(a1-2)[GalNAc(a1-3)]Gal(b1-4)GlcNAc(b1-2)Man(a1-6)]Man(b1-4)GlcNAc(b1-4)GlcNAc
# Summary of the method: as §1
# [21] = biological target: Fuc(a1-2)[GalNAc(a1-3)]Gal(b1-4)GlcNAc(b1-2)Man(a1-3)[Fuc(a1-2)[GalNAc(a1-3)]Gal(b1-4)GlcNAc(b1-2)Man(a1-6)]Man(b1-4)GlcNAc(b1-4)[Fuc(a1-6)]GlcNAc
# Summary of the method: as §1
# [22] = biological target: Fuc(a1-2)[GalNAc(a1-3)]Gal(b1-4)GlcNAc(b1-3)Gal(b1-4)GlcNAc
# Summary of the method: as §1
# [23] = biological target: Fuc(a1-2)[GalNAc(a1-3)]Gal(b1-4)GlcNAc(b1-3)Gal(b1-4)GlcNAc(b1-3)Gal(b1-4)GlcNAc
# Summary of the method: as §1
# [24] = biological target: Fuc(a1-2)[GalNAc(a1-3)]Gal(b1-4)GlcNAc(b1-3)GalNAc
# Summary of the method: as §1
# [25] = biological target: Fuc(a1-2)[GalNAc(a1-3)]Gal(b1-4)GlcNAc(b1-3)[Fuc(a1-2)[GalNAc(a1-3)]Gal(b1-4)GlcNAc(b1-6)]GalNAc
# Summary of the method: as §1
# [26] = biological target: Fuc(a1-2)[GalNAc(a1-3)]Gal(b1-4)GlcNAc(b1-6)GalNAc
# Summary of the method: as §1
# [27] = biological target: Fuc(a1-2)[GalNAc(a1-3)]Gal(b1-4)[Fuc(a1-3)]GlcNAc
# Summary of the method: as §1
# [28] = biological target: Fuc(a1-2)[GalNAc(a1-3)]Gal(b1-4)[Fuc(a1-3)]GlcNAc(b1-3)GalNAc
# Summary of the method: as §1
# [29] = biological target: Fuc(a1-2)[GalNAc(a1-4)]Gal(b1-4)GlcNAc
# Summary of the method: as §1
# [30] = biological target: Fuc(a1-2)[GalNAc(b1-3)]Gal
# Summary of the method: as §1
binder,measurement,setting,value
B1,glycan array binding signal (z-score),[1],0.949
same,glycan array binding signal (z-score),[2],-1.24
same,glycan array binding signal (z-score),[3],-0.376
same,glycan array binding signal (z-score),[4],-0.854
same,glycan array binding signal (z-score),[5],1.42
same,glycan array binding signal (z-score),[6],-0.893
same,glycan array binding signal (z-score),[7],0.188
same,glycan array binding signal (z-score),[8],0.068
same,glycan array binding signal (z-score),[9],-0.197
same,glycan array binding signal (z-score),[10],0.46
same,glycan array binding signal (z-score),[11],0.231
same,glycan array binding signal (z-score),[12],0.29
same,glycan array binding signal (z-score),[13],-0.552
same,glycan array binding signal (z-score),[14],-0.523
same,glycan array binding signal (z-score),[15],0.376
same,glycan array binding signal (z-score),[16],-0.083
same,glycan array binding signal (z-score),[17],-0.855
same,glycan array binding signal (z-score),[18],-0.557
same,glycan array binding signal (z-score),[19],-0.891
same,glycan array binding signal (z-score),[20],0.461
same,glycan array binding signal (z-score),[21],-0.243
same,glycan array binding signal (z-score),[22],-0.569
same,glycan array binding signal (z-score),[23],-0.64
same,glycan array binding signal (z-score),[24],-0.822
same,glycan array binding signal (z-score),[25],-0.373
same,glycan array binding signal (z-score),[26],-0.208
same,glycan array binding signal (z-score),[27],-0.603
same,glycan array binding signal (z-score),[28],1.49
same,glycan array binding signal (z-score),[29],-0.138
same,glycan array binding signal (z-score),[30],-0.189

# Reprinted at random: 2 entries already listed.
binder,measurement,setting,value
B1,glycan array binding signal (z-score),[10],0.46
same,glycan array binding signal (z-score),[6],-0.893
